Test results published in publication PMC7863910, “A novel stress-inducible CmtR-ESX3-Zn^2+ regulatory pathway essential for survival of Mycobacterium bovis under oxidative stress” (The Journal of Biological Chemistry, 2020).
Where a protein sequence is shown, tags need not be part of it.

Assays:
Zur = molecular target: T1, Zur (UniProt P9WN85); experiment: EMSA; details: recombinant protein, residues 1-130, protein details: His-SUMO (pET28a-Sumo), cleaved by ULP1, probe letters rebuilt from the primers and the genome
T1 sequence (looked up): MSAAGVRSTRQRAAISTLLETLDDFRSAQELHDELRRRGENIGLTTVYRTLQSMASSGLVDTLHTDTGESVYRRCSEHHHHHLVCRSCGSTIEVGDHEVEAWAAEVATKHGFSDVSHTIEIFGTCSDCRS

CmtR = molecular target: T2, CmtR (UniProt P9WMI9); experiment: EMSA; details: recombinant protein, residues 1-118, probe letters rebuilt from the primers and the genome
T2 sequence (looked up): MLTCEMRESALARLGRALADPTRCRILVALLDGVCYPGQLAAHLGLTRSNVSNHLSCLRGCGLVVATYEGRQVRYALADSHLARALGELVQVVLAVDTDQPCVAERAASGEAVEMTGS

Sequence | binding result (Zur; + MabR (no effect)) | binding result (Zur; Zur 1 uM) | binding result (CmtR; 10 mM DTT) | binding result (CmtR; CmtR 1.6-8.0 uM) | binding result (CmtR; H2O2 + DTT (inhibition reversed))
ACTGGCTAAATCCGTTGCCGCTGCCGCGATAACCTCTGGCGCCGCAATCACAAACGACATCTGACACCTCCCAATACGCATGACCGCTCTGTCATGCCGACCCGGGGAACGTCACCAGCAAAAATCGGCGGGCTACAGAATAACTCCGGCCCGGGAAAGGGATTTGGTATTTCCCAAAATATCTCCCACATTTATGCGGTCGGCGCGTCGGCCGACGGGAGCTGGCAGCACCCGTGGGCCGGCGCCGAGCGTTCGCTGGTGTCCGGCTGGGACTTGCATTGCGGCGCGCCGTGGTGTGGAATAGTGGTAATGAAAATCATGTTCATCAGTCCTCTGTGGTGTTTACGGCT (double strand) [rv0280p] | binds | binds |  |  | 
GATTCCCGCATCTCACACGTCAGCATAGATCAAATAGTACACCATATACTGGTATAACAGCAAGAGCTGAATTGTACATCCATAGCAGATATGATCGGCGCGCGTCACAAGCTTCCGGCCGCAGAGCCGCCAACTCACGATATCGTTAACCGATATCCCGAGCCGATAGCTGGCGGGCTCGGGTGGTGGCCAGCGGCGCTGCGACGAAAGGTGTGACCGTCATGAAACAGACACCACCGGCGGCCGTCGGCCGTCGTCACCTGCTCGAGATCTCAGCATCCGCAGCCGGTGTGATCGCGCTTTCGGCGTGTAGTGGGTCGCCGCCCGAGCCCGGCAAAGGCCGGCCCGACACAACCCCGGAACAGGAAGTCCC (double strand) [cmtRp] |  |  | binds | binds | binds
